For the series the following is noted: Eur. Ph. 5.0, section 2.9.15, 100 ml cylinder.

Regarding `CC1=C(C(=O)O)N2C(=O)[C@@H](NC(=O)[C@H](N)c3ccccc3)[C@H]2SC1` [Comparative experiment A, cephalexin], the Bulk density came out at 0.27 g/mL.
In the case of `CC1=C(C(=O)O)N2C(=O)[C@@H](NC(=O)[C@H](N)c3ccccc3)[C@H]2SC1.O` [Example I, cephalexin] it was 0.36 g/mL.

These data come from patent US20080031955A1, “Product Comprising a Beta-Lactam Antibiotic” (priority 2004, published 2008).
